Our source for the binding values is article PMC13393275.

Results are given in words; binding and its absence hold for the method and conditions named. Binding seen in cells or lysates may run through a third protein. A yes stands for co-enrichment or nearness to the bait. Other partners may have been found.

For this assay, the target named is T1, FRS2-mNeonGreen (human) (UniProt Q8WU20).
T1 sequence: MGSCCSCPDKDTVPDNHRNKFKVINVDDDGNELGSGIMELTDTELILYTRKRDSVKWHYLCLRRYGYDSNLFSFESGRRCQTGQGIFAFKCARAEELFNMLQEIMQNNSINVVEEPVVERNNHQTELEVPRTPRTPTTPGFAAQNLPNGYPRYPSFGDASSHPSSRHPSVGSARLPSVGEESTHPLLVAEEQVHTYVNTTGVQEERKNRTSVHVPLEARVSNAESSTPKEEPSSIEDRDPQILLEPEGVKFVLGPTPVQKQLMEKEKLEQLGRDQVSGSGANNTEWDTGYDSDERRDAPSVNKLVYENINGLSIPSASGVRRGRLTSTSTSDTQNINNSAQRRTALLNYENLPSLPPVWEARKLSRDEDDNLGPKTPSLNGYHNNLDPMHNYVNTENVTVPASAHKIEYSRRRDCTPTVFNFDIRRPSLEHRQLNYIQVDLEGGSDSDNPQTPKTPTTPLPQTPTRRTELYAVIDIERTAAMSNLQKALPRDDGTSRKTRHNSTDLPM
Description: affinity purification with mass spectrometry; mNeonGreen-Trap IP from bFGF-stimulated (50 ng/mL, 5 min) UW228 FRS2-mNG cells against UW228 WT; on-bead digestion, DIA LC-MS/MS, SAINTexpress; hits log2FC >= 1 and bFDR <= 0.05; n = 3.

B1: Argininosuccinate synthase (protein, UniProt P00966 1-412)
chain: MSSKGSVVLAYSGGLDTSCILVWLKEQGYDVIAYLANIGQKEDFEEARKKALKLGAKKVFIEDVSREFVEEFIWPAIQSSALYEDRYLLGTSLARPCIARKQVEIAQREGAKYVSHGATGKGNDQVRFELSCYSLAPQIKVIAPWRMPEFYNRFKGRNDLMEYAKQHGIPIPVTPKNPWSMDENLMHISYEAGILENPKNQAPPGLYTKTQDPAKAPNTPDILEIEFKKGVPVKVTNVKDGTTHQTSLELFMYLNEVAGKHGVGRIDIVENRFIGMKSRGIYETPAGTILYHAHLDIEAFTMDREVRKIKQGLGLKFAELVYTGFWHSPECEFVRHCIAKSQERVEGKVQVSVLKGQVYILGRESPLSLYNEELVSMNVQGDYEPTDATGFININSLRLKEYHRLQSKVTAK
In the case of B1, the binding entry is on record as “binds”.

B2: Phosphoserine aminotransferase (protein, UniProt Q9Y617 1-370)
chain: MDAPRQVVNFGPGPAKLPHSVLLEIQKELLDYKGVGISVLEMSHRSSDFAKIINNTENLVRELLAVPDNYKVIFLQGGGCGQFSAVPLNLIGLKAGRCADYVVTGAWSAKAAEEAKKFGTINIVHPKLGSYTKIPDPSTWNLNPDASYVYYCANETVHGVEFDFIPDVKGAVLVCDMSSNFLSKPVDVSKFGVIFAGAQKNVGSAGVTVVIVRDDLLGFALRECPSVLEYKVQAGNSSLYNTPPCFSIYVMGLVLEWIKNNGGAAAMEKLSSIKSQTIYEIIDNSQGFYVCPVEPQNRSKMNIPFRIGNAKGDDALEKRFLDKALELNMLSLKGHRSVGGIRASLYNAVTIEDVQKLAAFMKKFLEMHQL
With B2, the binding entry is recorded as “binds”.
